Test results published in publication doi:10.1101/2025.01.31.636011.

Target: T1, PgBamG (PGN_1735) with a C-terminal 7His-tag (Porphyromonas gingivalis) (UniProt B2RLK9)
T1 sequence (chain, tri-acylated lipid anchor; O-glycosylation, 7 sites): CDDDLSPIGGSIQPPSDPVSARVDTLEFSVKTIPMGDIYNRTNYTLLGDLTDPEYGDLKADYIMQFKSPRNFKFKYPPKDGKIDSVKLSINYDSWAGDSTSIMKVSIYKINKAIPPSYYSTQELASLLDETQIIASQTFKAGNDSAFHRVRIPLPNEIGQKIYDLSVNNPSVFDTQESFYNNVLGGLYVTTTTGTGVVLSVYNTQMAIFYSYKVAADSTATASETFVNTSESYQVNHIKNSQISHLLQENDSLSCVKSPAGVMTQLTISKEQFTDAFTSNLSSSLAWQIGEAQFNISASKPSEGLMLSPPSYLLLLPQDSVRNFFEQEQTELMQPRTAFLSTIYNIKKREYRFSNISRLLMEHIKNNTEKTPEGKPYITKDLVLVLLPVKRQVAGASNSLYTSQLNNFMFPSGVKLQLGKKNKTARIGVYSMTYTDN
Assay: cryo-EM structure

In the case of PgBamI, the binding is reported as “binds”.

No constants are given. Whether binding was seen depends on the method and setting. In cells and extracts the contact can be indirect. A result given as binding can be weak or reduced; the word gives no strength. Sequences can lack the tags named with a protein.
